# Test results reported in US20090123463A1.
# Chains of the proteins cited; added tags and fusions are not shown. Residues count along the entry.
# UniProt P35916, residues 25-1363: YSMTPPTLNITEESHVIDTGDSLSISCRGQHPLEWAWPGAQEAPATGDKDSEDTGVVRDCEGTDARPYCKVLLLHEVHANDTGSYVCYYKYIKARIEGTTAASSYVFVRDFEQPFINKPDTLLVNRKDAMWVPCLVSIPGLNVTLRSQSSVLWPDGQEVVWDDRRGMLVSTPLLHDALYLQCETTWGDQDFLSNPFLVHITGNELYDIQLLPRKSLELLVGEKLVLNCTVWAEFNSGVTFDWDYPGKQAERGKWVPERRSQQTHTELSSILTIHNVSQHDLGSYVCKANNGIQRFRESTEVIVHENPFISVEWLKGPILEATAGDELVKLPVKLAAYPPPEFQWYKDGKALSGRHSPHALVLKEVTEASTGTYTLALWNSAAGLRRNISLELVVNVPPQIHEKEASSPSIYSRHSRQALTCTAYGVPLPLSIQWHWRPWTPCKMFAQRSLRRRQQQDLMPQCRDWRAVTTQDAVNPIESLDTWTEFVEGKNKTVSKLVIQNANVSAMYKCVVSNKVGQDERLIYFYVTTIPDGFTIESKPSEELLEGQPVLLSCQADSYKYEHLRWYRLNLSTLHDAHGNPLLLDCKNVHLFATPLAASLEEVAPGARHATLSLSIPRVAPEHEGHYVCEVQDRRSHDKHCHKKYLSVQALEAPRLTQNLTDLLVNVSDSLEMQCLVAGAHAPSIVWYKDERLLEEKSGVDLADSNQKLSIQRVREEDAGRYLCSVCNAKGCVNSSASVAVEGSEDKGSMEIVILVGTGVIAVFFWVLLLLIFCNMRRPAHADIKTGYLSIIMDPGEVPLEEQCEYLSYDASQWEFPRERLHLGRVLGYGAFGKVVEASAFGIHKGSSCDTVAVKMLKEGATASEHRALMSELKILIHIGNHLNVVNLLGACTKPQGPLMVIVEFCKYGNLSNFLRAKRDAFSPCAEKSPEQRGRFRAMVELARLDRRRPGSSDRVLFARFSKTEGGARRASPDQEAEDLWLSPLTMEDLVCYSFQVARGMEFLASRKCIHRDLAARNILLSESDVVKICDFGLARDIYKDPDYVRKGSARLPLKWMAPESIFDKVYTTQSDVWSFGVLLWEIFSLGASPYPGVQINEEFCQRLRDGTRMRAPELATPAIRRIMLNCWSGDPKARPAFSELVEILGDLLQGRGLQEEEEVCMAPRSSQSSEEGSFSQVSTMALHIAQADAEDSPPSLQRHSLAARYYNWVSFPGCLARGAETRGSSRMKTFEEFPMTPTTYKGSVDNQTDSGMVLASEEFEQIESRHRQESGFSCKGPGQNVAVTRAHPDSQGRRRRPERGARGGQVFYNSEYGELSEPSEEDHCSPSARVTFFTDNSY
# UniProt Q05397, residues 693-1052: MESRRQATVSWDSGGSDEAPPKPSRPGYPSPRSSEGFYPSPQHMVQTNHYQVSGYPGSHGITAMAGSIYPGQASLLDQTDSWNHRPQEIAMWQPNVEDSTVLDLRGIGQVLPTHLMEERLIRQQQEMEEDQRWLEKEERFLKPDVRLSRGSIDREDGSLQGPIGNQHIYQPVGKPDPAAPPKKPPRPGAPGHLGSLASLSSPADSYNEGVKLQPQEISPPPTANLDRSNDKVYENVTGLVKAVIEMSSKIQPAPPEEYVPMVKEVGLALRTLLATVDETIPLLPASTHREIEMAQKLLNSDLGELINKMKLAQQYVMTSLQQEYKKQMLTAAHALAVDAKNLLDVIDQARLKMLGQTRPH
# Results are given in words; binding and its absence hold for the method and conditions named. Some binding calls cover weakened binding; strength is not graded here.
# Target: VEGFR-3/FLT-4 wild type (UniProt P35916)
# Test: blot of direct binding (FIG. 11)
substance,measurement,value
"C-terminal domain of focal adhesion kinase (FAK-CD), baculoviral (from UniProt Q05397 693-1052)",binding,binds
